Laboratory results from PMC6123713, “Adenylate kinase potentiates the capsular polysaccharide by modulating Cps2D in Streptococcus pneumoniae D39” (Experimental & Molecular Medicine, 2018).
Results are given in words; binding and its absence hold for the method and conditions named. In cells and extracts the contact can be indirect. Some results given as binding are weak or reduced against the parent protein; the word gives no strength.

Target: T1, Cps2D, endogenous (Streptococcus pneumoniae D39 (endogenous in D39 lysate)) (UniProt Q9ZII6)
T1 sequence: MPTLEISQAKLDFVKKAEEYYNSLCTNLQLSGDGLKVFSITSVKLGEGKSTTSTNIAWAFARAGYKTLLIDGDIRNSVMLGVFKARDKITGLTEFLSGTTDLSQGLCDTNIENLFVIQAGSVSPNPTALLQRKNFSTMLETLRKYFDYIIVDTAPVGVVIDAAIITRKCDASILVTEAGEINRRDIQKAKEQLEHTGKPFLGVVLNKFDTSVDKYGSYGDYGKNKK
Experiment: co-IP; S. pneumoniae D39 WT lysate (100 µg) with antibodies against SpAdK, Cps2D or AdhE (negative control), Protein A/G PLUS Agarose, 4 °C; western blotting; no exogenous Mg-ATP added

B1: GST-SpAdK (Streptococcus pneumoniae adenylate kinase, GST-tagged) (enzyme)
chain: MNLLIMGLPGAGKGTQAAKIVEQFHVAHISTGDMFRAAMANQTEMGVLAKSYIDKGELVPDEVTNGIVKERLSQDDIKETGFLLDGYPRTIEQAHALDKTLAELGIELEGIINIEVNPDSLLERLSGRIIHRVTGETFHKVFNPPVDYKEEDYYQREDDKPETVKRRLDVNIAQGEPIIAHYRAKGLVHDIEGNQDINDVFSDIEKVLTNLK
notes: adenylate kinase of Streptococcus pneumoniae (SpAdK); also called glutathione S-transferase (GST)-SpAdK; pGST-ADK; source: recombinant, purified; plasmid pGST-ADK (E. coli plasmid pGST-parallel 2); cloning and purification in the Supplementary Information
With B1 the binding was “binds”.
